# According to patent US11965201B2, “Arginine supplementation to improve efficiency in gas fermenting acetogens” (LanzaTech NZ, Inc., priority 2015, dated 2024):
# The amount applied is not stated for every result.
# Test system: C. autoethanogenum DSM10061
# Test: Amino acid consumption and production during heterotrophic growth (HPLC), compared to biomass requirement
# Format: cell-based, Clostridium autoethanogenum
structure (smiles),measurement,setting,value
N=C(N)NCCC[C@H](N)C(=O)O [arginine],OD by which the amino acid was completely exhausted,12AA medium,0.37
same,OD by which the amino acid was depleted,14AA and 8AA media,0.24
